Assay results from the supplement of paper PMC4749390.
Structures can show the parent of a compound that is named as a salt. The list shows a part of the results. Single values are uncertain here, since repeats match poorly.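 JEG3 cells stably express tetracycline-inducible wild-type human LRH-1, a highly sumoylated nuclear receptor. SUMO-sensitive transcripts APOC3 and MUC1, increased by SUMO-deficient LRH-1 or UBC9 knockdown, were quantified by RT-qPCR relative to TBP and DMSO controls. Primary hits had robust Z-scores above +2 or below -2, before toxicity and TBP filtering.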

tested on: JEG3 expressing hLRH-1; experiment: MUC1 transcript change (ddCt vs TBP and DMSO), Z-score over library; higher = higher MUC1 expression; details: 10 µM; time (hr): 24

SMILES | MUC1 transcript change (Z-score)
CCCc1nc(C(C)(C)O)c(C(=O)OCc2oc(=O)oc2C)n1Cc1ccc(-c2ccccc2-c2nn[nH]n2)cc1 [olmesartan medoxomil] | 0.346
CC(CN1c2ccccc2Sc2ccccc21)N(C)C (stereo not drawn) [Promethazine hydrochloride] | -0.00897
CC1=C(C(=O)O)N2C(=O)[C@@H](NC(=O)C(N)c3ccccc3)[C@H]2SC1 (stereo partly drawn) [cephalexin] | -1.78
CCOc1ccc2nc(S(N)(=O)=O)sc2c1 [ethoxzolamide] | 0.31
CCN(CC)CCOc1ccc2c(c1)C(=O)c1cc(OCCN(CC)CC)ccc1-2 [tilorone] | -1.06
CC(C)[C@@H]1CC[C@@H](C)C[C@H]1O [(-)-menthol] | -0.49
CCOC(=O)COc1ccc2c(=O)cc(-c3ccccc3)oc2c1 [efloxate] | -0.222
COc1ccccc1OCC(O)CN1CCN(CC(=O)Nc2c(C)cccc2C)CC1 (stereo not drawn) [ranolazine] | 0.79
N=c1ccn2c(n1)O[C@H]1[C@H](O)[C@@H](CO)O[C@H]12 [ancitabine hydrochloride] | 0.907
CC(=O)Oc1c(C)cccc1C(=O)O [cresopyrine] | 0.273
C#C[C@]1(O)CCC2C3CCC4=CC(=O)CC[C@@H]4C3CC[C@@]21C (stereo partly drawn) [norethindrone] | -0.288
N[C@H](Cc1ccccc1)C(=O)O [d-phenylalanine] | 0.939
CNCC[C@H](Oc1cccc2ccccc12)c1cccs1 [duloxetine hydrochloride] | -0.297
NC(N)=O [urea] | 0.284
COc1ccc2cc(CCC(C)=O)ccc2c1 [nabumetone] | -0.246
CNC[C@H](O)c1cccc(O)c1 [Phenylephrine hydrochloride] | 0.268
CC(C)(CO)[C@@H](O)C(=O)NCCCO [dexpanthenol] | 0.392
CCOC(=O)[C@H](CCc1ccccc1)N[C@@H](C)C(=O)N1[C@H](C(=O)O)C[C@H]2CCCC[C@@H]21 [trandolapril] | 0.0139
OC(CCN1CCCCC1)(c1ccccc1)C1CC2C=CC1C2 (stereo not drawn) [biperiden] | -0.36
CCC(c1ccc(O)cc1)C(CC)c1ccc(O)cc1 (stereo not drawn) [hexestrol] | 0.439
CC(/N=C(\NC#N)Nc1ccncc1)C(C)(C)C (stereo not drawn) [Pinacidil] | 0.138
COCCO/C(O)=C1\C(C)=NC(C)=C(C(=O)OC(C)C)C1c1cccc([N+](=O)[O-])c1 (stereo not drawn) [Nimodipine] | 0.0237
CCCCC(CC)C/N=C(N)/N=C(\N)NCCCCCCN/C(N)=N/C(N)=N/CC(CC)CCCC (stereo not drawn) [alexidine hydrochloride] | 0.0911
CN[C@@H]1[C@H](OC2[C@H](O[C@H]3[C@H](O)[C@@H](O)[C@H](N=C(N)N)[C@@H](O)[C@@H]3N=C(N)N)O[C@@H](C)[C@]2(O)C=O)O[C@@H](CO)[C@H](O)[C@H]1O (stereo partly drawn) [streptomycin sulfate] | 0.533
CO[C@H]1C[C@@H]2CC[C@@H](C)[C@@](O)(O2)C(=O)C(=O)N2CCCC[C@H]2C(=O)O[C@H]([C@H](C)C[C@@H]2CC[C@@H](O)[C@H](OC)C2)CC(=O)[C@H](C)/C=C(\C)[C@@H](O)[C@@H](OC)C(=O)[C@H](C)C[C@H](C)/C=C/C=C/C=C/1C [sirolimus] | -2.09

SMILES | MUC1 transcript change (Z-score)
C[C@@H](O)[C@H]1C(=O)N2C(C(=O)O)=C(SCC/N=C/N)C[C@H]12 [imipenem] | -0.0178
C[C@]12CCC(=O)C=C1CCC1C2[C@@H](O)C[C@@]2(C)C1CC[C@]2(O)C(=O)CO (stereo partly drawn) [hydrocortisone] | -1.08
C#C[C@]1(O)CC[C@H]2[C@@H]3CCc4cc(OC)ccc4[C@H]3CC[C@@]21C [mestranol] | -0.321
Nc1nc(F)nc2c1ncn2[C@@H]1O[C@H](COP(=O)(O)O)[C@@H](O)[C@@H]1O [fludarabine phosphate] | 0.706
CCN1CCCC1CNC(=O)c1cc(S(=O)(=O)CC)c(N)cc1OC (stereo not drawn) [amisulpride] | -0.657
Cc1c(C(N)=O)cc([N+](=O)[O-])cc1[N+](=O)[O-] [dinitolmide] | 0.781
Cc1nc(C)c(Cl)c(O)c1Cl [clopidol] | 0.845
[NH2][Pt]([NH2])([Cl])[Cl] [cisplatin] | 0.145
Nc1c2c(nc3ccccc13)CCCC2 [9-Amino-1,2,3,4-tetrahydroacridine hydrochloride] | 0.713
C[C@@H]1CN(c2c(F)c(N)c3c(=O)c(C(=O)O)cn(C4CC4)c3c2F)C[C@H](C)N1 [sparfloxacin] | 0.47
CC1(C)S[C@@H]2[C@H](NC(=O)[C@H](C(=O)O)c3cccs3)C(=O)N2[C@H]1C(=O)O [ticarcillin disodium] | 0.0368
OC(CCN1CCCCC1)(c1ccccc1)c1ccccc1 [pridinol methanesulfonate] | 0.233
CN(C)c1ccc2nc3ccc(N(C)C)cc3[s+]c2c1 [methylene blue] | 1.69
OCc1ccccc1 [benzyl alcohol] | -1.34
CCC1=C[C@@H]2CN(C1)Cc1c([nH]c3ccccc13)[C@@](C(=O)OC)(c1cc3c(cc1OC)N(C)[C@H]1[C@@](O)(C(=O)OC)[C@H](OC(C)=O)[C@]4(CC)C=CCN5CC[C@]31[C@@H]54)C2 [vinorelbine] | -0.458
CCOC(=O)CCC(=O)O[C@H]1[C@H](O[C@@H]2[C@@H](C)[C@H](O[C@H]3C[C@@](C)(OC)[C@@H](O)[C@H](C)O3)[C@@H](C)C(=O)O[C@H](CC)[C@@](C)(O)[C@H](O)[C@@H](C)C(=O)[C@H](C)C[C@@]2(C)O)O[C@H](C)C[C@@H]1N(C)C [erythromycin ethylsuccinate] | -0.261
C[C@H]1[C@H](NC(=O)/C(=N\OC(C)(C)C(=O)O)c2csc(N)n2)C(=O)N1S(=O)(=O)O [aztreonam] | -1.88
CCCCCCCCCCCCCCCC(=O)OCC(O)[C@H]1OC(O)=C(O)C1=O (stereo partly drawn) [ascorbyl palmitate] | -0.0175
CC(C[N+](C)(C)C)OC(N)=O (stereo not drawn) [Bethanechol chloride] | 0.396
CO/N=C1\CN(c2nc3c(cc2F)c(=O)c(C(=O)O)cn3C2CC2)CC1CN (stereo not drawn) [gemifloxacin mesylate] | -0.0994
CC(=O)N1CCN(c2ccc(OCC3CO[C@](Cn4ccnc4)(c4ccc(Cl)cc4Cl)O3)cc2)CC1 (stereo partly drawn) [ketoconazole] | -0.2
O=C(Nc1ccc(C(=O)O)c(O)c1)c1ccccc1 [benzoylpas] | 0.382
c1ccc(C2CN3CCSC3=N2)cc1 (stereo not drawn) [tetramizole hydrochloride] | -0.821
CC(C)Cc1ccc(C(C)C(=O)O)cc1 (racemic) [(±)-Ibuprofen] | 0.232
CCOc1nc2cccc(C(=O)OCc3oc(=O)oc3C)c2n1Cc1ccc(-c2ccccc2-c2noc(O)n2)cc1 [azilsartan kamedoxomil] | -0.499

SMILES | MUC1 transcript change (Z-score)
C#C[C@]1(O)CC[C@H]2[C@@H]3[C@H](C)CC4=C(CCC(=O)C4)[C@H]3CC[C@@]21C [tibolone] | 0.459
OC[C@@H](O)[C@@H](O)[C@H](O)[C@@H](O)CO [mannitol] | 0.495
CCCCC(=O)O[C@]1(C(=O)CO)[C@@H](C)C[C@H]2[C@@H]3CCC4=CC(=O)C=C[C@]4(C)[C@@]3(F)[C@@H](O)C[C@@]21C [betamethasone valerate] | 0.0898
C[N+]1(C)CCC(OC(=O)C(O)(c2ccccc2)C2CCCC2)C1 (stereo not drawn) [glycopyrrolate] | 1.27
CC(=O)OCC(=O)[C@@]1(O)CC[C@H]2[C@@H]3CCC4=CC(=O)C=C[C@]4(C)[C@@]3(F)[C@@H](O)C[C@@]21C [isoflupredone acetate] | -0.622
Oc1ccc(O)cc1 [hydroquinone] | -0.645
CCn1cc(C(=O)O)c(=O)c2cnc(N3CCNCC3)nc21 [pipemidic acid] | -0.0487
O=C(O)c1cc(=O)c2c(OCC(O)COc3cccc4oc(C(=O)O)cc(=O)c34)cccc2o1 [cromolyn sodium] | -0.972
NCC1CCCCC1CC(=O)O (stereo not drawn) [gabapentin] | 0.598
CC(=O)N[C@@H](CC(C)C)C(=O)O [acetyl-l-leucine] | -0.706
O=C1c2ccccc2C(=O)C1c1ccc(Br)cc1 [bromindione] | 1.25
CN(Cc1cc(Br)cc(Br)c1N)C1CCCCC1 [bromhexine hydrochloride] | 0.341
CC(O)Cn1cnc2c1c(=O)n(C)c(=O)n2C (stereo not drawn) [proxyphylline] | 0.396
COc1ccc2c(c1)c(CC(=O)OCC(=O)O)c(C)n2C(=O)c1ccc(Cl)cc1 [acemetacin] | -0.19
Nc1ccc(C(=O)Oc2ccccc2)c(O)c1 [fenamisal] | -0.0285
O=c1oc2c(O)c(O)cc3c(=O)oc4c(O)c(O)cc1c4c23 [ellagic acid] | 0.517
Nc1ncnc2c1ncn2[C@@H]1O[C@H](COP(=O)(O)O)[C@@H](O)[C@H]1O [adenosine phosphate] | 0.61
NC(=O)N/N=C/c1ccc([N+](=O)[O-])o1 [nitrofurazone] | 0.481
CCCc1nc(C)c2c(O)nc(-c3cc(S(=O)(=O)N4CCN(CC)CC4)ccc3OCC)nn12 [vardenafil hydrochloride] | -0.699
C=C1c2c(Cl)ccc(O)c2C(O)=C2C(=O)[C@]3(O)C(O)=C(C(N)=O)C(=O)[C@@H](N(C)C)[C@@H]3[C@@H](O)[C@H]12 [meclocycline sulfosalicylate] | 0.596
CC(=O)Nc1ccc(S(=O)(=O)Nc2onc(C)c2C)cc1 [sulfisoxazole acetyl] | -0.313
Cc1cc(C(C)(C)C)c(O)c(C(C)(C)C)c1 [2,6-di-t-butyl-4-methylphenol] | -0.146
Cc1nc2ccccn2c(=O)c1CCN1CCC(C(=O)c2ccc(F)cc2)CC1 [Pirenperone] | -0.0641

Random excerpt: 2 compounds from above, in no set order.
SMILES | MUC1 transcript change (Z-score)
O=C(O)c1cc(=O)c2c(OCC(O)COc3cccc4oc(C(=O)O)cc(=O)c34)cccc2o1 [cromolyn sodium] | -0.972
OC[C@@H](O)[C@@H](O)[C@H](O)[C@@H](O)CO [mannitol] | 0.495
